This passage reports binding results from publication PMC11936160.

Sequences of proteins named here, by UniProt entry; tags and fusion partners are left off. Residues count along the entry.
UniProt P11021, residues 19-654: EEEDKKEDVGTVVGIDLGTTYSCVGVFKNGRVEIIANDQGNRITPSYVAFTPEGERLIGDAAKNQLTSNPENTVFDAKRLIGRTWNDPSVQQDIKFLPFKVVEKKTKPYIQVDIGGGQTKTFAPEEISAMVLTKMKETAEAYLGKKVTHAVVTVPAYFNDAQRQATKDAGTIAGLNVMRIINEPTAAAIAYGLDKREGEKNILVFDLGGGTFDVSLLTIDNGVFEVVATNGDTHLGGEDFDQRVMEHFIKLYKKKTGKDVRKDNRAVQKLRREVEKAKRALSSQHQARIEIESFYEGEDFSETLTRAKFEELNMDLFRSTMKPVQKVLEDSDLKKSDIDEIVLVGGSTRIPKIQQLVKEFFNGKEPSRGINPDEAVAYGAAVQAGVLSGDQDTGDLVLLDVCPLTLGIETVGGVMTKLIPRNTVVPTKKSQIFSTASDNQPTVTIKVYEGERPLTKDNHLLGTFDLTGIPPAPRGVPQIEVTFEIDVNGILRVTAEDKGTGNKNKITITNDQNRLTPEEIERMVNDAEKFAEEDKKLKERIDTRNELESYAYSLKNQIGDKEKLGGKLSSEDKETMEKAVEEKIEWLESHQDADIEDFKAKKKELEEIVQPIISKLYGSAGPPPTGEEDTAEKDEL

For the test, the target named is recombinant NS3 of DENV 2 tagged with EGFP (dengue virus 2 (DENV 2)) (UniProt P29990). The test is described as follows: co-IP.

Results are given in words; binding and its absence hold for the method and conditions named. In cells and extracts the contact can be indirect. Some results given as binding are weak or reduced against the parent protein; the word gives no strength.

For the substance “GRP78, endogenous (from UniProt P11021 19-654)”, the binding result is on record as “binds”.
